# Results taken from PubChem BioAssay (Tox21).
# Values joined by “and” are separate entries in the source; they are usually repeats but may differ in a detail not shown here. Equal values may be shown once. Most of the hits are listed elsewhere, so they are rarer here than in the full data. Records with an inconclusive call do not appear. Active and inactive are the calls of the source. Unless noted, the call rests on the fitted dose curve; in most records, active means well fitted cell-killing curve with a large enough effect in the repeat runs; inconclusive means weak or mixed curves, or effect the other way; inactive means flat fitted curve, though single readings scatter.
# Legend:
# [1] = Nuclear factor erythroid 2-related factor 2/antioxidant responsive element (Nrf2/ARE) small molecule agonists: qHTS cell viability counter screen in human keratinocytes (AID 1919968); details: KeratinoSens HaCaT ARE cells viability, CellTiter-Fluor, 24 h; further: nearly all actives have a fitted effect of over 55% in size
# Method in brief: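 KeratinoSens HaCaT cells, 1,500/well, preincubated 5 h, then exposed to compounds in DMSO for 23 h at 37 C/5% CO2. Viability read as CellTiter-Fluor fluorescence after 1 h, in the same wells as the ARE-luciferase read.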
# [2] = Nuclear factor erythroid 2-related factor 2/antioxidant responsive element (Nrf2/ARE) small molecule agonists: luciferase reporter gene qHTS assay in human keratinocytes (AID 1919969; calls by dose curve; further: nearly all actives have a fitted effect of over 35% in size); details: KeratinoSens HaCaT ARE-luciferase, luminescence, 24 h
# On the % scale 0 is the no-effect control and ±100 the full control effect.
smiles,measurement,setting,value
O=C(O)COCCN1CCN(C(c2ccccc2)c2ccc(Cl)cc2)CC1 (stereo not drawn),"activity change, negative = cytotoxicity",[1]; at 42.5 µM (top of the series),inactive: 2.21%
same,"activity change, negative = cytotoxicity",[1]; at 92.4 µM (top of the series),inactive: -4.82%
same,"activity, positive = activation",[2]; at 42.5 µM (top of the series),inactive: 0.152%
same,"activity, positive = activation",[2]; at 92.4 µM (top of the series),inactive: -3.13%
Cc1cnc(C(=O)NCCc2ccc(S(=O)(=O)NC(=O)NC3CCCCC3)cc2)cn1,"activity, positive = activation",[2]; at 42.5 µM (top of the series),inactive: 0.0158%
same,"activity, positive = activation",[2]; at 92.4 µM (top of the series),inactive: 20.7%
C[N+]1(C)CCC(OC(=O)C(O)(c2ccccc2)C2CCCC2)C1 (stereo not drawn),"activity change, negative = cytotoxicity",[1]; at 42.5 µM (top of the series),inactive: 0.482%
NCCCC(O)(P(=O)(O)O)P(=O)(O)O,"activity change, negative = cytotoxicity",[1]; at 42.5 µM (top of the series),inactive: 4.83%
CN1[C@@H]2CC(OC(=O)[C@H](CO)c3ccccc3)C[C@H]1[C@@H]1O[C@@H]12 (stereo partly drawn),"activity change, negative = cytotoxicity",[1]; at 42.5 µM (top of the series),inactive: 0.555%
same,"activity change, negative = cytotoxicity",[1]; at 92.4 µM (top of the series),inactive: 0.446% and inactive: 0.386% and inactive: -0.911%
CC(C)(C(=O)O)c1ccc(C(O)CCCN2CCC(C(O)(c3ccccc3)c3ccccc3)CC2)cc1 (stereo not drawn),"activity change, negative = cytotoxicity",[1]; at 42.5 µM (top of the series),inactive: -7.66%
same,"activity, positive = activation",[2]; at 42.5 µM (top of the series),inactive: 3.7%
CCCCc1oc2ccccc2c1C(=O)c1cc(I)c(OCCN(CC)CC)c(I)c1,"activity, positive = activation",[2]; at 42.5 µM (top of the series),inactive: -36.4%
